Compound in experiment [1]: ClCC(=O)N[C@@H]1CCCc2ccccc12
The experiment can be described thus: log2 mean competition ratio of IA-DTB cysteine labelling (DMSO/compound) (log2 ratio); higher = stronger cysteine engagement by compound. The conditions noted are these: treatment time: 4 h, cell line lysate: HEK293T. Here is the method:
(§1)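 IA-DTB competitive cysteine chemoproteomics in HEK293T RIPA lysate. Lysates were treated with compound 29 or 30 at 50 or 200 µM for 4 h, then IA-DTB (500 µM, 1 h), trypsin-digested, NeutrAvidin-enriched and analysed by diaPASEF. Competition ratio = intensity DMSO / intensity compound (n=4 treated, n=64 DMSO); binding: mean log2 CR ≥ 1 and p ≤ 0.05 plus QC filters. Target is the cysteine site.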

The chains behind the UniProt entries cited, without tags or fusion partners. Where a name states a change or a piece, a line headed by the entry shows the natural chain unless it says otherwise. Residues count along the entry.
UniProt Q8NBU5: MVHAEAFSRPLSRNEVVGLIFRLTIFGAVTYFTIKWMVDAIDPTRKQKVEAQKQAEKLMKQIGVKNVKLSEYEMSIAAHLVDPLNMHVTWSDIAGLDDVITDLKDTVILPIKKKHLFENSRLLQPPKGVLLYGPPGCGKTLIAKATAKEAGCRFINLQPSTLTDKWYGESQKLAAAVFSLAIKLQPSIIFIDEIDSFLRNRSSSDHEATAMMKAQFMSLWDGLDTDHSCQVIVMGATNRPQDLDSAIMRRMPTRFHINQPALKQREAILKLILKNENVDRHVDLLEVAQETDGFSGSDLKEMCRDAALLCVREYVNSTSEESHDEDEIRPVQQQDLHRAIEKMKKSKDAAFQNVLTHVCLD
UniProt Q14692: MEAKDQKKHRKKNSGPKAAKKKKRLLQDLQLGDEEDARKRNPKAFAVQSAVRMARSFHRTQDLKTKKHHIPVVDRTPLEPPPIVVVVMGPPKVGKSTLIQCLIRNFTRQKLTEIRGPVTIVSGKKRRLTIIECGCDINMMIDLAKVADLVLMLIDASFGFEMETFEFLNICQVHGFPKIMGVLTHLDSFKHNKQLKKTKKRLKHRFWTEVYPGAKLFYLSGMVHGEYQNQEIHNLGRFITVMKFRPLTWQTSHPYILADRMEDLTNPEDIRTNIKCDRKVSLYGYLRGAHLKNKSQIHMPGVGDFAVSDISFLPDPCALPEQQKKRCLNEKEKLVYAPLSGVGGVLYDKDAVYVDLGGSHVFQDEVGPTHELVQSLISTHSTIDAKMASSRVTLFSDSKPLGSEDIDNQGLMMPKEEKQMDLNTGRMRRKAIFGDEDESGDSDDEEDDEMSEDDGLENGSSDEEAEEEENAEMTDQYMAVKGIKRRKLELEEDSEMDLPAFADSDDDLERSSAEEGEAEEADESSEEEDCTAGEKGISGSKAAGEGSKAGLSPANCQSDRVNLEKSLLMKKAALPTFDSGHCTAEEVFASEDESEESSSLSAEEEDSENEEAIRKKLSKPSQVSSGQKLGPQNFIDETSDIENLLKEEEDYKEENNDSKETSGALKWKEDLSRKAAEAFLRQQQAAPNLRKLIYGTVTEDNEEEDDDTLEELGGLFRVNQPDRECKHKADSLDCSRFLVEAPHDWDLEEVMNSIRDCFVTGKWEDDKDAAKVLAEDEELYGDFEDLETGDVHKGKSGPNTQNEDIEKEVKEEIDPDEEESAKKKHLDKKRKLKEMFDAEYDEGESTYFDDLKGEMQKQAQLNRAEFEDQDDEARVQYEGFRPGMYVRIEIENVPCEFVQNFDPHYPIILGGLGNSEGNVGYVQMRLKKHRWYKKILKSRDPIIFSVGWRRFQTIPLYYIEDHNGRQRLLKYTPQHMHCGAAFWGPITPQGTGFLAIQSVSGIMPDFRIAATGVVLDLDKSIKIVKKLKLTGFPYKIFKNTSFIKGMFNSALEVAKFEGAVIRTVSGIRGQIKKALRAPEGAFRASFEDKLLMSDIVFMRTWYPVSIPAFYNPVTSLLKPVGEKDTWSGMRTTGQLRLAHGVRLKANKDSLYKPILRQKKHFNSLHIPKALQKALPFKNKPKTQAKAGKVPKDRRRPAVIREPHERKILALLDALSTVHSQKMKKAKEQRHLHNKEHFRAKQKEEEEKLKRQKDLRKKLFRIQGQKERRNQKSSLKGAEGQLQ
UniProt Q5H9F3: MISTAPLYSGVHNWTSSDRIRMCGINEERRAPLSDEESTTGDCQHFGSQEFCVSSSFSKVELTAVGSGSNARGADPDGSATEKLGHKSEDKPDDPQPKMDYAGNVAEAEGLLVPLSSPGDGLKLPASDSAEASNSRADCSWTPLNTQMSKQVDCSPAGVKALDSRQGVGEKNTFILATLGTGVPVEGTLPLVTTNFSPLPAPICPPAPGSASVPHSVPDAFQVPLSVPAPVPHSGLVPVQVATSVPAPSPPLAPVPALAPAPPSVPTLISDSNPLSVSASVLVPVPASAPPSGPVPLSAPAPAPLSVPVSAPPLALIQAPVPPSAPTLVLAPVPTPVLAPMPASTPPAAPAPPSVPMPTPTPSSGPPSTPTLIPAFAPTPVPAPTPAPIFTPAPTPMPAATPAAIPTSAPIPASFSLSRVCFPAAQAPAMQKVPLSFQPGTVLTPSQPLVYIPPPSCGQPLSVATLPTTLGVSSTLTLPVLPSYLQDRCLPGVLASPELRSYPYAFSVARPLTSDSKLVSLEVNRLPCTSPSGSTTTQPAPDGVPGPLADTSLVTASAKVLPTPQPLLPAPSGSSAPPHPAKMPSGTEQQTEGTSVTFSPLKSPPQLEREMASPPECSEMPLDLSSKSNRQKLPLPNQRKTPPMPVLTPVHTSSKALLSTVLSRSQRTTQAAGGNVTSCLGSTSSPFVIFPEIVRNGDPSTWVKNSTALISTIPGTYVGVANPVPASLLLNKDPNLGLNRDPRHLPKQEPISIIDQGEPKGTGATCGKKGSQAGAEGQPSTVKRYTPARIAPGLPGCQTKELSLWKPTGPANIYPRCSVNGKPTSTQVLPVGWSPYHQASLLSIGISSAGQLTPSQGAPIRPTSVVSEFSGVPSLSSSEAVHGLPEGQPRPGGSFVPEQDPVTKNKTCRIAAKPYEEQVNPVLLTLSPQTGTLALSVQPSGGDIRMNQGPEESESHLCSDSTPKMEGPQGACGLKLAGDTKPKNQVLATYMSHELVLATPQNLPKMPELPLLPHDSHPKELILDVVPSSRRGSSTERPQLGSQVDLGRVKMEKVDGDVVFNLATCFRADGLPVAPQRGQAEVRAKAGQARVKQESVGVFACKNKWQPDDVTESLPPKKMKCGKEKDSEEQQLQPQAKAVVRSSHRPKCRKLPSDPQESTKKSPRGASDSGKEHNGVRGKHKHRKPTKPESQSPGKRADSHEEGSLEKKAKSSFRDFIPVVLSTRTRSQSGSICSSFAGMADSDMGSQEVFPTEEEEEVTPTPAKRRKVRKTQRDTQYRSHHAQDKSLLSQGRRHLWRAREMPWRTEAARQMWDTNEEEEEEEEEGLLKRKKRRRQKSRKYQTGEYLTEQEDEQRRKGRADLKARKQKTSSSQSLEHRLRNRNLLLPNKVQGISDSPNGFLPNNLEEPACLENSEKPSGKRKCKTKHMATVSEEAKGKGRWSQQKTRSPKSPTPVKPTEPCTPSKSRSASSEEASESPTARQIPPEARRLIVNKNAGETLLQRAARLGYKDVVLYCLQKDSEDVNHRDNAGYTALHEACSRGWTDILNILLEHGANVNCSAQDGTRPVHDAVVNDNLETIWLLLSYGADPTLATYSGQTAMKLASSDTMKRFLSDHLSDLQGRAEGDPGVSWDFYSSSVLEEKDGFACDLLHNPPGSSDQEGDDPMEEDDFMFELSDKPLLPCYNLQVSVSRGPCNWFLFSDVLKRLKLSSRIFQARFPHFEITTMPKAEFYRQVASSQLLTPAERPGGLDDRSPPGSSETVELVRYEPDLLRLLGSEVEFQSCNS
UniProt P20020: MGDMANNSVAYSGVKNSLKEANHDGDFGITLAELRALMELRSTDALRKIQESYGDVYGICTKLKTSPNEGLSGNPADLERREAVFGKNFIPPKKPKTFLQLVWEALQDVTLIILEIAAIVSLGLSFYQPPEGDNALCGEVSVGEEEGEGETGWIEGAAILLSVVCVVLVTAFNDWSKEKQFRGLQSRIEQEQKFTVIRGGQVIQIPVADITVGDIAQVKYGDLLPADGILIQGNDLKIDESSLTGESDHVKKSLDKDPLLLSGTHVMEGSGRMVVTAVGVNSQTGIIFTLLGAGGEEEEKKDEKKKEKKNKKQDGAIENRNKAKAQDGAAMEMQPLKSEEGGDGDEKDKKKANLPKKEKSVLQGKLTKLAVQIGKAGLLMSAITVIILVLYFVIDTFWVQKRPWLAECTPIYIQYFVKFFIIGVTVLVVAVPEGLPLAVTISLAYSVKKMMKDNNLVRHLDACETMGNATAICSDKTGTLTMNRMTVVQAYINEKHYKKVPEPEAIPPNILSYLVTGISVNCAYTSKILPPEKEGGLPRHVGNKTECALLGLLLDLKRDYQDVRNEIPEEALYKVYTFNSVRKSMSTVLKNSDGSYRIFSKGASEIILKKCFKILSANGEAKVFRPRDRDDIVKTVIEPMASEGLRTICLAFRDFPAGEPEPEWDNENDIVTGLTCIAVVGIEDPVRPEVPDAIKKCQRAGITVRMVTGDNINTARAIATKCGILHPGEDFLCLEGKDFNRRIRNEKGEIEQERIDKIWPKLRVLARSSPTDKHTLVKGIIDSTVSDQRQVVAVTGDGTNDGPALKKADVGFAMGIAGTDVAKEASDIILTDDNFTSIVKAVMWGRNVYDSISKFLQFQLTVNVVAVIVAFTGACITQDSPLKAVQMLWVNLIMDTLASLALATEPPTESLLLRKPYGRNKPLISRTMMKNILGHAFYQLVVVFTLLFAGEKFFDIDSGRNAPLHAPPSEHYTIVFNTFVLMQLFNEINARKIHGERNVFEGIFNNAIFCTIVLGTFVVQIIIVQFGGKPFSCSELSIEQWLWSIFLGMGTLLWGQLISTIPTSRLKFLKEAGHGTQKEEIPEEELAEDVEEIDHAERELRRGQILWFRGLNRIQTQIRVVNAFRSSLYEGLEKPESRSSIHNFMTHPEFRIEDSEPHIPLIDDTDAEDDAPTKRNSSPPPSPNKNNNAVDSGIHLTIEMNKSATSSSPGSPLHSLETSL
UniProt O95817, 366-388: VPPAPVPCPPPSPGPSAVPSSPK
UniProt Q96QE3: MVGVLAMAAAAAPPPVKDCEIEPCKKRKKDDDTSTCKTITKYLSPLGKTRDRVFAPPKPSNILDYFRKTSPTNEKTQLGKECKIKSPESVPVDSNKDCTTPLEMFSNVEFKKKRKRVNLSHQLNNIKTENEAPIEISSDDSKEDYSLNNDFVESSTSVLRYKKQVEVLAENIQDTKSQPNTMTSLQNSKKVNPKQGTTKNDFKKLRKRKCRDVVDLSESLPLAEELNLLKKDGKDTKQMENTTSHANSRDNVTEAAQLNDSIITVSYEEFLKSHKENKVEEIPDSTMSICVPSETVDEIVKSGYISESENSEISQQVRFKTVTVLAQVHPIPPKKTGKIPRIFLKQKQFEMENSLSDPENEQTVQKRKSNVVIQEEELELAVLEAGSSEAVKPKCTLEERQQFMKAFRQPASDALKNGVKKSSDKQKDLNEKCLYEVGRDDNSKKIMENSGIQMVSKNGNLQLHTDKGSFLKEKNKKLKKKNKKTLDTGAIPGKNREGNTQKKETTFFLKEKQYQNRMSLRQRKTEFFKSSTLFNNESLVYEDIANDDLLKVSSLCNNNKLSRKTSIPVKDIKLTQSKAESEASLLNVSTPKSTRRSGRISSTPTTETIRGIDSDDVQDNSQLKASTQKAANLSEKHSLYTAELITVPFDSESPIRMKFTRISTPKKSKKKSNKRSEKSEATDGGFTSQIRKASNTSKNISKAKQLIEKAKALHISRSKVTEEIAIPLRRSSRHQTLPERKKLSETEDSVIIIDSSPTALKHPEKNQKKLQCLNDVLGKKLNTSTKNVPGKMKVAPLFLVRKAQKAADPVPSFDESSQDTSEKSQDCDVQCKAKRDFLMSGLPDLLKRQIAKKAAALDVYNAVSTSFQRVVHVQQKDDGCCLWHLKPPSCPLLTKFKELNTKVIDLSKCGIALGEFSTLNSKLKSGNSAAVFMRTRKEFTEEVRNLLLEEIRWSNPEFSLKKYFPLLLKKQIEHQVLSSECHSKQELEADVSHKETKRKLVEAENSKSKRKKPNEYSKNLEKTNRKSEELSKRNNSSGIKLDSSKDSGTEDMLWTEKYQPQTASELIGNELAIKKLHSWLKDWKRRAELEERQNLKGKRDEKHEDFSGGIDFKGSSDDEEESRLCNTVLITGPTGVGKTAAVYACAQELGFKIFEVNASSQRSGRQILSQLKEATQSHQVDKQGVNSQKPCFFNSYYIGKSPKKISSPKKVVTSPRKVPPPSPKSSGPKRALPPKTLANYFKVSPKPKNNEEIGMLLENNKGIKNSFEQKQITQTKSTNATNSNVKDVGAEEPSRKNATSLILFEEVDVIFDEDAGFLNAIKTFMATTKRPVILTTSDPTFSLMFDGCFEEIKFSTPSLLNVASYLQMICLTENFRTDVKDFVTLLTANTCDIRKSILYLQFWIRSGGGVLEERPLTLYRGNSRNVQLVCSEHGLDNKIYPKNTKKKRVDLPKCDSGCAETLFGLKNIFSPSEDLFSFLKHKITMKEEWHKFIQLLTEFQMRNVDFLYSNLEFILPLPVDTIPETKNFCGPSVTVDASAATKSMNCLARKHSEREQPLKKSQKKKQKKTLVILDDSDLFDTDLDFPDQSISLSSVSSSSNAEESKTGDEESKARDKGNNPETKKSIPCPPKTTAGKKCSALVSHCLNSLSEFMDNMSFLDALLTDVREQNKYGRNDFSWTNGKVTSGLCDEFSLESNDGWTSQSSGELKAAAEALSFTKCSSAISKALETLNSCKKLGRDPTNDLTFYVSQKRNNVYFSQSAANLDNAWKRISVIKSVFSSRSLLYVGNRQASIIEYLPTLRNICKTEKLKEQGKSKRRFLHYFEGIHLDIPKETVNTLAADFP
UniProt Q96BY7, 864-894: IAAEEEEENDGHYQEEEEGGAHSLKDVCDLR

Compound in experiment [2]: ClCC(=O)N[C@H]1CCCc2ccccc12
Described as above. The conditions noted are these: treatment time: 4 h, cell line lysate: HEK293T. Here is the method: as §1

The results in this text go back to the supplement of paper PMC11732987, “Enantioselective OTUD7B fragment discovery through chemoproteomics screening and high-throughput optimisation” (Communications Chemistry, 2025).

This is one part of the list. The data scatter; read single values as rough.

Take ATE1 C205 (UniProt O95260): the “log2 mean competition ratio” value in experiment [1] (50 µM) was 0.000286; in experiment [1] (200 µM), -0.41; in experiment [2] (50 µM), 0.219; in experiment [2] (200 µM), -0.238.

For the target ATAD1 C310 (UniProt Q8NBU5), the “log2 mean competition ratio” value in experiment [1] (50 µM) was -0.133; in experiment [1] (200 µM), 0.0371; in experiment [2] (50 µM), 0.373; in experiment [2] (200 µM), 0.0916.

For ATXN10 C65 (UniProt Q9UBB4), the “log2 mean competition ratio” value in experiment [1] (50 µM) was 0.198; in experiment [1] (200 µM), -0.165; in experiment [2] (50 µM), 0.128; in experiment [2] (200 µM), -0.249.

Turning to ATM C2021 (UniProt Q13315), the “log2 mean competition ratio” value is -0.0824 in experiment [1] (50 µM), 0.0765 in experiment [1] (200 µM), -0.0596 in experiment [2] (50 µM) and 0.16 in experiment [2] (200 µM).

As for BMS1 C725 (UniProt Q14692), the “log2 mean competition ratio” value in experiment [1] (50 µM) is -0.148; in experiment [1] (200 µM) it was 0.354; in experiment [2] (50 µM), -0.126; in experiment [2] (200 µM), 0.415.

In the case of BCR C753 (UniProt P11274), the “log2 mean competition ratio” value in experiment [1] (50 µM) is -0.0459; in experiment [1] (200 µM), 0.141; in experiment [2] (50 µM) it was -0.0309; in experiment [2] (200 µM), 0.091.

Regarding BCORL1 C1460 (UniProt Q5H9F3), the “log2 mean competition ratio” value was 0.0233 in experiment [1] (50 µM), -0.11 in experiment [1] (200 µM), -0.0549 in experiment [2] (50 µM) and -0.17 in experiment [2] (200 µM).

As to ATP11B C629 (UniProt Q9Y2G3), the “log2 mean competition ratio” value in experiment [1] (50 µM) was -0.228; in experiment [1] (200 µM), 0.0315; in experiment [2] (50 µM), 0.0842; in experiment [2] (200 µM), 0.133.

Take AURKB C170 (UniProt Q96GD4): the “log2 mean competition ratio” value in experiment [1] (50 µM) is -0.0712; in experiment [1] (200 µM) it was 0.192; in experiment [2] (50 µM), -0.154; in experiment [2] (200 µM), 0.275.

In the case of ASPM C520 (UniProt Q8IZT6), the “log2 mean competition ratio” value in experiment [1] (50 µM) was 0.253; in experiment [1] (200 µM), 0.106; in experiment [2] (50 µM), 0.243; in experiment [2] (200 µM) it was -0.0461.

For the target BBS7 C167 (UniProt Q8IWZ6), the “log2 mean competition ratio” value in experiment [1] (50 µM) is 0.0149; in experiment [1] (200 µM), 0.215; in experiment [2] (50 µM) it was -0.103; in experiment [2] (200 µM), 0.0262.

Regarding ATP2B1 C60 (UniProt P20020), the “log2 mean competition ratio” value in experiment [1] (50 µM) came to 0.0638; in experiment [1] (200 µM) it was 0.0843; in experiment [2] (50 µM), 0.0544; in experiment [2] (200 µM), 0.0758.

As to BAZ1B C497 (UniProt Q9UIG0), the “log2 mean competition ratio” value in experiment [1] (50 µM) was -0.0412; in experiment [1] (200 µM), 0.264; in experiment [2] (50 µM), 0.241; in experiment [2] (200 µM), 0.221.

As to BMS1 C734 (UniProt Q14692), the “log2 mean competition ratio” value in experiment [1] (50 µM) is 0.0391; in experiment [1] (200 µM) it was 0.0639; in experiment [2] (50 µM), -0.0241; in experiment [2] (200 µM) it was 0.0522.

Take BAG3 C373 (UniProt O95817): the “log2 mean competition ratio” value was -0.315 in experiment [1] (50 µM), -0.247 in experiment [1] (200 µM), 0.241 in experiment [2] (50 µM) and -0.126 in experiment [2] (200 µM).

Take BIRC6 C543: the “log2 mean competition ratio” value is -0.178 in experiment [1] (50 µM), -0.196 in experiment [1] (200 µM), -0.0572 in experiment [2] (50 µM) and -0.278 in experiment [2] (200 µM).

As to ATAD5 C909 (UniProt Q96QE3), the “log2 mean competition ratio” value is 0.137 in experiment [1] (50 µM), 0.135 in experiment [1] (200 µM), 0.00489 in experiment [2] (50 µM) and -0.0135 in experiment [2] (200 µM).

As to BIRC6 C2910, the “log2 mean competition ratio” value is -0.0489 in experiment [1] (50 µM), -0.211 in experiment [1] (200 µM), 0.262 in experiment [2] (50 µM) and -0.0608 in experiment [2] (200 µM).

On to ATR C1343 (UniProt Q13535), for which the “log2 mean competition ratio” value was 0.0335 in experiment [1] (50 µM), 0.142 in experiment [1] (200 µM), -0.133 in experiment [2] (50 µM) and 0.0429 in experiment [2] (200 µM).

On to ATRX C1844 (UniProt P46100), for which the “log2 mean competition ratio” value in experiment [1] (50 µM) is -0.0954; in experiment [1] (200 µM), -0.00898; in experiment [2] (50 µM), -0.0963; in experiment [2] (200 µM) it was 0.0351.

Regarding ATG2B C891 (UniProt Q96BY7), the “log2 mean competition ratio” value in experiment [1] (50 µM) was -0.378; in experiment [1] (200 µM) it was 0.0793; in experiment [2] (50 µM) it was 0.143; in experiment [2] (200 µM) it was -0.268.

Turning to ATP2A3 C636 (UniProt Q93084), the “log2 mean competition ratio” value in experiment [1] (50 µM) is 0.23; in experiment [1] (200 µM), -0.152; in experiment [2] (50 µM) it was 0.48; in experiment [2] (200 µM), -0.0452.

As for BIRC6 C1319, the “log2 mean competition ratio” value in experiment [1] (50 µM) is 0.382; in experiment [1] (200 µM), 0.0286; in experiment [2] (50 µM) it was -0.132; in experiment [2] (200 µM), -0.0455.

On to BMPR2 C496 (UniProt Q13873), for which the “log2 mean competition ratio” value in experiment [1] (50 µM) was -0.0759; in experiment [1] (200 µM), 0.278; in experiment [2] (50 µM), -0.372; in experiment [2] (200 µM), 0.189.

Turning to ATRX C1789 (UniProt P46100), the “log2 mean competition ratio” value in experiment [1] (50 µM) is 0.0768; in experiment [1] (200 µM), 0.233; in experiment [2] (50 µM) it was 0.109; in experiment [2] (200 µM), 0.213.
